Record: PubChem BioAssay AID493246 (Drosophila RNAi Screening Center, 2011)
In all, the deposit lists about 21,000 reagents; this is an unselected part of those with a known target gene and a result. Of all reagents, 429 (2%) were called active. 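Values are raw and not normalised between plates; calls rest on per-plate z-scores that were not deposited.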 Reagents against one gene are numbered here. A plus sign joins genes that one reagent is predicted to hit. Not given: the amount of reagent, the time to read-out.

- Purpose: 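Identify essential fly genes by loss of cell viability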 (primary screen)
- System: Drosophila Kc and S2R+ cells
- Knock-down reagent: long dsRNA against Drosophila genes
- Read-out: 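Cell number per well after knock-down, printed as raw plate values; calls were based on per-plate z-scores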
- Scale: Kc cell number and S2R+ cell number: higher = more cells remaining
- Call rule: 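Active when the per-plate z-score of cell number is 3 or more in the direction of fewer cells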

target | reagent no. | Kc cell number, rep 1 | Kc cell number, rep 2 | S2R+ cell number, rep 1 | S2R+ cell number, rep 2 | Outcome
OS9 + Hf | 1 | 1.30e6 | 1.41e6 | 1.38e6 | 1.42e6 | inactive
AhcyL2 (GeneID 42043) | 1 | 1.37e6 | 1.35e6 | 1.12e6 | 1.21e6 | inactive
CG12056 (GeneID 31855) | 1 | 5.65e5 | – | 8.57e5 | – | inactive
RpL39 (GeneID 37849) | 1 | 9.67e5 | 1.15e6 | 7.91e5 | 9.78e5 | active
CG6972 (GeneID 42684) | 1 | 1.57e6 | 1.66e6 | 9.85e5 | 1.10e6 | inactive
CG6345 (GeneID 41271) | 1 | 1.40e6 | 1.44e6 | 1.37e6 | 1.35e6 | inactive
Cbs (GeneID 33081) | 1 | 1.39e6 | 1.45e6 | 1.04e6 | 1.18e6 | inactive
CG12817 (GeneID 41250) | 1 | 1.45e6 | 1.49e6 | 1.27e6 | 1.35e6 | inactive
Cdk12 (GeneID 40385) | 1 | 1.36e6 | 1.51e6 | 1.16e6 | 1.13e6 | inactive
CG10918 (GeneID 33123) | 1 | 1.66e6 | 1.64e6 | 1.05e6 | 1.22e6 | inactive
S6kII (GeneID 33139) | 1 | 1.51e6 | 1.52e6 | 1.07e6 | 1.22e6 | inactive
CG17199 (GeneID 42401) | 1 | 1.41e6 | 1.50e6 | 1.02e6 | 1.05e6 | inactive
Sirt1 (GeneID 34708) | 1 | 1.28e6 | 1.35e6 | 1.16e6 | 1.27e6 | inactive
TrpA1 (GeneID 39015) | 1 | 1.32e6 | 1.25e6 | 1.13e6 | 1.11e6 | inactive
VAChT + ChAT | 1 | 1.60e6 | 1.62e6 | 1.15e6 | 1.16e6 | inactive
Mad1 (GeneID 35954) | 1 | 1.39e6 | 1.49e6 | 1.02e6 | 1.02e6 | inactive
CG7988 (GeneID 42180) | 1 | 1.36e6 | 1.34e6 | 1.03e6 | 1.12e6 | inactive
Dh44-R1 (GeneID 36601) | 1 | 1.44e6 | 1.53e6 | 1.15e6 | 1.12e6 | inactive
CG13739 (GeneID 35957) | 1 | 1.43e6 | 1.41e6 | 6.26e5 | 7.22e5 | active
CG33125 (GeneID 318892) | 1 | 1.46e6 | 1.47e6 | 1.06e6 | 1.14e6 | inactive
Swt1 (GeneID 32788) | 1 | 1.46e6 | 1.54e6 | 1.03e6 | 1.24e6 | inactive
Ir51a (GeneID 3771848) | 1 | 1.82e6 | 2.02e6 | 1.46e6 | 1.64e6 | inactive
GrlHz (GeneID 37648) | 1 | 1.38e6 | 1.45e6 | 1.13e6 | 1.23e6 | inactive
Hk (GeneID 31955) | 1 | 1.13e6 | 1.21e6 | 8.49e5 | 8.70e5 | inactive
Hk (GeneID 31955) | 2 | 1.55e6 | 1.52e6 | 9.31e5 | 1.03e6 | inactive
CG9759 (GeneID 41661) | 1 | 1.53e6 | 1.66e6 | 1.37e6 | 1.57e6 | inactive
CG9265 (GeneID 35369) | 1 | 1.80e6 | 1.84e6 | 1.30e6 | 2.84e5 | inactive
CG9265 (GeneID 35369) | 2 | 1.68e6 | 1.79e6 | 1.29e6 | 3.13e5 | inactive
CG1631 (GeneID 33029) | 1 | 1.39e6 | 1.45e6 | 1.06e6 | 1.15e6 | inactive
CG17744 (GeneID 38768) | 1 | 1.31e6 | 1.32e6 | 1.22e6 | 1.23e6 | inactive
hdly (GeneID 42478) | 1 | 1.25e6 | 1.18e6 | 1.11e6 | 1.25e6 | inactive
CG30356 (GeneID 246562) | 1 | 1.35e6 | 1.45e6 | 9.75e5 | 1.12e6 | inactive
CG1265 (GeneID 38517) | 1 | 1.40e6 | 1.48e6 | 1.05e6 | 1.18e6 | inactive
Tsp74F (GeneID 39995) | 1 | 1.36e6 | 1.51e6 | 1.25e6 | 1.38e6 | inactive
fsd (GeneID 36463) | 1 | 1.61e6 | 1.64e6 | 1.38e6 | 1.47e6 | inactive
CG8765 (GeneID 40147) | 1 | 1.37e6 | 1.40e6 | 8.95e5 | 9.78e5 | inactive
Rif1 (GeneID 246445) | 1 | 1.65e6 | 1.59e6 | 1.02e6 | 1.24e6 | inactive
knrl (GeneID 40285) | 1 | 1.49e6 | 1.56e6 | 1.30e6 | 1.35e6 | inactive
defl (GeneID 39141) | 1 | 1.12e6 | 1.51e6 | 1.16e6 | 9.65e5 | inactive
GstE5 (GeneID 37110) | 1 | 1.54e6 | 1.61e6 | 1.13e6 | 1.26e6 | inactive

In a second layout: entries from further up.
CG9759 (GeneID 41661)
- Kc cell number, rep 1: 1.53e6
- Kc cell number, rep 2: 1.66e6
- S2R+ cell number, rep 1: 1.37e6
- S2R+ cell number, rep 2: 1.57e6
- Outcome: inactive

CG9265 (GeneID 35369) #1
- Kc cell number, rep 1: 1.80e6
- Kc cell number, rep 2: 1.84e6
- S2R+ cell number, rep 1: 1.30e6
- S2R+ cell number, rep 2: 2.84e5
- Outcome: inactive

CG9265 (GeneID 35369) #2
- Kc cell number, rep 1: 1.68e6
- Kc cell number, rep 2: 1.79e6
- S2R+ cell number, rep 1: 1.29e6
- S2R+ cell number, rep 2: 3.13e5
- Outcome: inactive

CG1631 (GeneID 33029)
- Kc cell number, rep 1: 1.39e6
- Kc cell number, rep 2: 1.45e6
- S2R+ cell number, rep 1: 1.06e6
- S2R+ cell number, rep 2: 1.15e6
- Outcome: inactive

CG17744 (GeneID 38768)
- Kc cell number, rep 1: 1.31e6
- Kc cell number, rep 2: 1.32e6
- S2R+ cell number, rep 1: 1.22e6
- S2R+ cell number, rep 2: 1.23e6
- Outcome: inactive

hdly (GeneID 42478)
- Kc cell number, rep 1: 1.25e6
- Kc cell number, rep 2: 1.18e6
- S2R+ cell number, rep 1: 1.11e6
- S2R+ cell number, rep 2: 1.25e6
- Outcome: inactive

CG30356 (GeneID 246562)
- Kc cell number, rep 1: 1.35e6
- Kc cell number, rep 2: 1.45e6
- S2R+ cell number, rep 1: 9.75e5
- S2R+ cell number, rep 2: 1.12e6
- Outcome: inactive
